Assay results taken from patent US10047081B2, “BACE1 inhibitors” (Hoffmann-La Roche Inc., priority 2015, dated 2018).

By UniProt entry, the sequences of proteins in these tests, tags left out. Residues count along the entry.
UniProt P56817, 46-501 limits assumed: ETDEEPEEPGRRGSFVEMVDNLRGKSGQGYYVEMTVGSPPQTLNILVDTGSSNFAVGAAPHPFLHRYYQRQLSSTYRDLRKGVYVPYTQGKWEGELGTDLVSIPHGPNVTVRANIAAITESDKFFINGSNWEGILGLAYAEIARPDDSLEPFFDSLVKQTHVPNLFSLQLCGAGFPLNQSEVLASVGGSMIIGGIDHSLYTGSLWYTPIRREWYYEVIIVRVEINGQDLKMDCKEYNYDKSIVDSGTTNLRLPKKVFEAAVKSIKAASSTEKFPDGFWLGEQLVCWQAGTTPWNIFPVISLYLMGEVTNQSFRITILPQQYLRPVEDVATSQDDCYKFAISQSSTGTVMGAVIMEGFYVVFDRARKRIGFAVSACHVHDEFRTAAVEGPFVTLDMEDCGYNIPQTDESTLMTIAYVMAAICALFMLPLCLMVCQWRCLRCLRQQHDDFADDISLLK

Target: BACE1 (Homo sapiens, UniProt P56817)
Experiment: Cellular Aβ-lowering assay (Abeta 40 AlphaLISA, HEK293 APP cells)
Conditions: read-out: BACE1 cell act. Aβ40 IC50, 18-20 hrs incubation, Aβ 40 in culture supernatant, tested form: TFA
Experimental: Cellular Aβ-Lowering Assay:
The Abeta 40 AlphaLISA Assay can be used. The HEK293 APP cells were seeded in 96 well Microtiter plates in cell culture medium (Iscove's, plus 10% (v/v) fetal bovine serum, penicillin/streptomycin) to about 80% confluency and the compounds were added at a 3× concentration in ⅓ volume of culture medium (final DMSO concentration was kept at 1% v/v). After 18-20 hrs incubation at 37° C. and 5% CO2 in a humidified incubator, the culture supernatants were harvested for the determination of Aβ 40 concentrations using Perkin-Elmer Human Amyloid beta 1-40 (high specificity) Kit (Cat#AL275C).
In a Perkin-Elmer White Optiplate-384 (Cat#6007290), 2 ul culture supernatants were combined with 2 μl of a 10× AlphaLISA Anti-hAβAcceptor beads + Biotinylated Antibody Anti-Aβ 1-40 Mix (50 μg/mL/5 nM). After 1 hour room temperature incubation, 16 μl of a 1.25× preparation of Streptavidin (SA) Donor beads (25 μg/mL) were added and incubated for 30 minutes in the Dark. Light Emission at 615 nm was then recorded using EnVision-Alpha Reader. Levels of Aβ 40 in the culture supernatants were calculated as percentage of maximum signal (cells treated with 1% DMSO without inhibitor). The IC50 values were calculated using the Excel XLfit software.

## COc1cnc(-c2cc(-c3ccc(F)c([C@]4(C)C[S@@](=O)(=NC5CC5)C(C)(C)C(N)=N4)c3)on2)cn1
  IC50: 13 nM

Structures were worked out from names or drawings and are uncertain.
